Data as given in PMC6092318, “Keap1–MCM3 interaction is a potential coordinator of molecular machineries of antioxidant response and genomic DNA replication in metazoa” (Scientific Reports, 2018).
Results are given in words; binding and its absence hold for the method and conditions named. For some assays here: Binding can be weak; no strength is given. For some assays here: Tags and fused reporters may be left off the sequences shown. For some assays here: In cells and extracts the contact can be indirect.

By UniProt entry, the sequences of proteins in these tests, tags left out.
UniProt Q9Z2X8: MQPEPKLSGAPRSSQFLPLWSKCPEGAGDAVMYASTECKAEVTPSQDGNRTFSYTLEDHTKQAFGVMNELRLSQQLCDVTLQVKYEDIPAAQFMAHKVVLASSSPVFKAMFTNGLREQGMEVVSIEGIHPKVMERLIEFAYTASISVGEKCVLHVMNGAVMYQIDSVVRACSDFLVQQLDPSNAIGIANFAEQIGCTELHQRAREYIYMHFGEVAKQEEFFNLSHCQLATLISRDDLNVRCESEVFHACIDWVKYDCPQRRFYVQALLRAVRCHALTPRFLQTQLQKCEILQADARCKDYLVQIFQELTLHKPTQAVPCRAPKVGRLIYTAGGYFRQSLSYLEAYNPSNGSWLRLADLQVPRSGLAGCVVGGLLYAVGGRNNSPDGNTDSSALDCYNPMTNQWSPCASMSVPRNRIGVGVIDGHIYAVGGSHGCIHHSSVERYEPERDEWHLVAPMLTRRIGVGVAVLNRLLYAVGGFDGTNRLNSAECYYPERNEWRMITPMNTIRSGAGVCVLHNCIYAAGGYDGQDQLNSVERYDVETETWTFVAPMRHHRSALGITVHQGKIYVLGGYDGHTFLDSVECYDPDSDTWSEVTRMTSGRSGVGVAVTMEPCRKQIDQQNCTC

Legend:
[1] = target: strep-Keap1 (mouse, wild type, baculovirus) (mouse) (UniProt Q9Z2X8); assay: pull-down; Strep-Tactin beads (strep-Keap1 as bait) on extracts of baculovirus co-infected Sf9 cells, 1 hr at 4 °C, washes with 250 mM KCl buffer pH 7.8, Western blot
[2] = target: T1, FLAG-MCM3 (mouse MCM3 expressed in CHO-EBNALT85 cells) (mouse) (UniProt P25206); assay: co-IP; anti-FLAG M2 beads on whole cell, nuclear and cytoplasmic extracts of FLAG-MCM3 expressing CHOEBNALT85 cells, 150 mM KCl, Western blot
T1 sequence: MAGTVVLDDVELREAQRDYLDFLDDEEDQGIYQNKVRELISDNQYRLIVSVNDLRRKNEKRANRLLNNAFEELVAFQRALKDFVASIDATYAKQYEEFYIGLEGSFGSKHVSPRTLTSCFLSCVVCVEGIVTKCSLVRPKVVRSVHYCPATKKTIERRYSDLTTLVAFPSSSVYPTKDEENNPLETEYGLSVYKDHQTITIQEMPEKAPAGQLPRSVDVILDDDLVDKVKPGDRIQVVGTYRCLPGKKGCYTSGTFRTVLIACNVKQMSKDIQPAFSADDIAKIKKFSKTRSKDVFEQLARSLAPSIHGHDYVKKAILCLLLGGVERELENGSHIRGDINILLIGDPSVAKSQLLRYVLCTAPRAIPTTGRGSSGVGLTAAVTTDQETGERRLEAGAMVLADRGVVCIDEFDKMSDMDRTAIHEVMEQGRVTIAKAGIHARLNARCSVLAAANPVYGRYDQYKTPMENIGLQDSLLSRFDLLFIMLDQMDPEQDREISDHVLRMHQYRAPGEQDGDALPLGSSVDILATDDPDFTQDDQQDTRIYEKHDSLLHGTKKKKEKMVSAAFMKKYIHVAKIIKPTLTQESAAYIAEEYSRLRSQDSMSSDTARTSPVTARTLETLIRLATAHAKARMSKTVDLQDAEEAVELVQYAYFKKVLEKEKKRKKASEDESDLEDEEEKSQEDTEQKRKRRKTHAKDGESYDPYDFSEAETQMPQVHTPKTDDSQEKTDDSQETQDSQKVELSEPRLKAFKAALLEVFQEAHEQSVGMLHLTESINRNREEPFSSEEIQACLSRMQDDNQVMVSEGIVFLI

[3] = target: T1, FLAG-MCM3 (mouse MCM3 expressed in CHO-EBNALT85 cells) (mouse); assay: SEC; Superdex 200 10/300 GL of the FLAG-MCM3 immunoprecipitates from CHO extracts, C-150 buffer with 10% glycerol; gels and Western blots of fractions
[4] = target: FLAG-MCM3 ETGE > EAGE mutant (mouse, baculovirus) (mouse) (UniProt P25206); assay: co-IP; anti-FLAG beads (FLAG-MCM3 as bait; called FLAG-MCM3 pulldown) on extracts of baculovirus co-infected Sf9 cells, 1 hr at 4 °C, washes with 250 mM KCl buffer pH 7.8, Western blot

With “FLAG-MCM3 ETGE > EAGE mutant (mouse, baculovirus) (from UniProt P25206)” the binding [1] was “no binding”.

With “Keap1 (endogenous, CHO cells) (Chinese hamster (endogenous in CHO))” the binding [2] was “binds” and the binding [3] was “binds”.

For “MCM-BP (endogenous, CHO cells) (Chinese hamster (endogenous in CHO))”, the binding [3] was “binds”.

B1: HA-MCM-BP (mouse, baculovirus) (natural protein, UniProt Q8R3C0 1-642, looked up)
chain: MPCGEDWLSHPLGIVQGFFAQNGVNPDWEKKVIEYFKEKLKENNAPKWVPSLNEVPLHYLKPNSFVKFRCMIQDMFDPEFYMGIYETVNQNTKARVLHFGKYRDVAECGPQQELDLSSPRSTTSERQTFYCVPVPGESSWVKEAYVNANQARVSPSTSYTPSRHKRSYEDDEDMDLQPSKQKEQHPGSRQAGGLGGLHWCGEPKRLETEASSGQQLNTLNLSSPFDLNFPLPGEKGPACLVKVYEDWDCFKVNDVLELYGVLSVDPVLSVLNSEERDASALLDPMECTDMAEEQRVHSPPASLVPRIHVILAQKLQHINPLLPTCLNKEESRSCQFVSNFMSELSPVRAELLGFLTHALLGDSLAAEYLILHLISTVYTRRDVLPLGKFTVNLSGCPQNSTFTEHLYRIIQHLVPASFRLQMTIENMNQLKLIPHKDYTANRLVSGLLQLPNNTSLVIDETLLEQGQLDTPGVHNVTALSNLITWQKVDYDFSYHQMEFPCNINVLITSEGRSLLPADCQIHLQPQLIPPNMEEYMNGLLSAVLPSVLNKFRIYLTLLRFLDYNLSDDITKAVEDDFVEMRKDDPQSITADDLHQLLVVARFLSLSVGQTTLSRERWLRAKQLELSRKARLQQQKSVNGNEL
notes: MCM-BP, mouse; cDNA cloned into pFastBac1; source: Sf9, baculovirus infected, in extract
For B1, the binding [4] was “binds”.
